The assay deals with Salmonella enterica serovar Typhimurium SL1344. Briefly: bacterial growth OD600 after 18 h with compound and polymyxin B; higher = more bacterial growth (less inhibition). Conditions: 50 µM, Mueller-Hinton broth.

The record followed here is the supplement of paper PMC12889115.

The other results are listed elsewhere or left out. Values are raw readings; no control value is given beside them.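 In the initial screen, polymyxin B was used at a concentration that permeabilizes Salmonella's outer membrane but not its inner membrane. Maximum growth was set by DMSO wells with or without polymyxin B. Since plates varied, data were ranked per plate, and compounds giving the lowest OD600 advanced as hits.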

Consider `OCC1(Cc2ccccc2)CCCN(CCCC2CCCC2)C1` (centres undefined), for which the “bacterial growth OD600” value (polymyxin B 0.75 µg/mL) was found to be 0.901.

`CC#CC(=O)N1CCCC(C(=O)Nc2ccc(-c3cccc(F)c3)cc2)C1` (centres undefined): under “polymyxin B 1 µg/mL”, the “bacterial growth OD600” value was found to be 0.701.

With `Cc1ccc(C)c(CN2CCC(CO)(Cc3ccccc3)CC2)c1`, the “bacterial growth OD600” value (polymyxin B 1 µg/mL) was determined as 0.881.

Regarding `Cc1ccn(CC(=O)NC2CC(=O)N(CC3CCCCC3)C2)n1` (centres undefined), for the setting “polymyxin B 1 µg/mL”, the “bacterial growth OD600” value turned out to be 0.865.

Turning to `CCOC(=O)N1CCN(C(=O)C2CC23CCN(C(=O)C2=CCCC2)CC3)CC1` (centres undefined), the “bacterial growth OD600” value (polymyxin B 0.75 µg/mL) is 0.981.

Turning to `Cc1nc(C)c(CN(C)C2CCCN(CCc3ccccc3)C2)nc1C` (centres undefined), where the note is “polymyxin B 1 µg/mL”, the “bacterial growth OD600” value is 0.725.

On to `CN(c1ncccc1CNc1ncccn1)C1CCCCC1`, for which, under “polymyxin B 0.75 µg/mL”, the “bacterial growth OD600” value is 0.569.

In the case of `CCOC(=O)C1(CCOc2ccccc2)CCN(S(=O)(=O)c2c(C)noc2C)CC1`, the “bacterial growth OD600” value (polymyxin B 1 µg/mL) came to 0.834.

`CC(NC(=O)c1cc(COc2ccccc2)on1)c1nccs1` (centres undefined): the “bacterial growth OD600” value (polymyxin B 1 µg/mL) turned out to be 0.775.
